## Percent effect of library compounds

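Whole-parasite assay of Trypanosoma brucei over 72 hours; the read-out is not stated. Tested at 30 µM. The record gives no direction; compounds that gave an IC50 in retests scored well above the rest, so higher reads as stronger inhibition. Values scatter widely below zero; nearly all retest evidence comes from the higher of the two concentrations used. Of about 64,000 compounds tested this way, about 940 (1.5%) reached 50% or more in at least one test.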

Results are given as percent effect. How 0% and 100% were set is not recorded. Most values in the screen are low, and negative values occur. Compounds were drawn at random from those tested, without regard to their results.

| # | compound | Percent Effect |
|---|---|---|
| 1 | `COCC(=O)NCCc1nc2cc(-c3ccc(OC)cc3)ncn2n1` | -8.191% |
| 2 | `O=C(Cn1cccc2oc(=O)nc1-2)NCC1Cc2ccccc2O1` (stereo unspecified) | -16.21% |
| 3 | `CC(C)c1noc(C(C)N2CCN(Cc3nnc(C4CC4)o3)CC2)n1` (stereo unspecified) | 0.4598% |
| 4 | `COCC(O)CN1CCC(NC(=O)c2ccccc2Cl)CC1` (stereo unspecified) | -64.21% |
| 5 | `[H][C@]12CC[C@]([H])(CN(C(=O)c3ccccc3)C1)N(Cc1cc(F)ccc1Cl)C2` | -18.83% |
| 6 | `c1ccc2c(N3CCCCC3Cn3cncn3)ncnc2c1` (stereo unspecified) | -8.601% |
| 7 | `O=C(O)C(F)(F)F.O=C(O)C(F)(F)F.c1cc(CN2Cc3nccn3CC(Cn3cncn3)C2)ccn1` (stereo unspecified) | -13.09% |
| 8 | `Fc1cccc(CNc2cncc(-n3cccn3)n2)c1` | 3.927% |
| 9 | `CNc1cc2c(nn1)CCN(C(=O)c1ccc(-n3nccc3C)cc1)C2` | -16.47% |
| 10 | `CCc1cnc(CN2CCC(O)(c3cc(OC)cc(OC)c3)CC2)o1` | -35.43% |
| 11 | `CCN1CCCC(C)(C(=O)NCc2nccn2Cc2ccccc2)C1` (stereo unspecified) | -18.52% |
| 12 | `O=C(c1scc2c1OCCO2)N1CCOC(CCc2ccccc2)C1` (stereo unspecified) | 22.31% |
| 13 | `c1cc(C2CCN(c3cncnc3)CC2)ccn1` | -6.111% |
| 14 | `CCOCC(O)CN1CCN(C(=O)c2ccc(N(C)C)nn2)CC1` (stereo unspecified) | -26.53% |
| 15 | `Cc1cnc(N2CCC3(CCN(CC4CC4)C3=O)CC2)nc1` | -22.3% |
| 16 | `CN(Cc1nc(Cc2cccc(F)c2)no1)C1CCOCC1` | -4.131% |
| 17 | `Cc1nc2n(n1)CC(NCC(=O)NCCC1=CCCCC1)CC2` (stereo unspecified) | 0.587% |
| 18 | `[H][C@]12CCN(C(=O)C(C)C)CC[C@@]1([H])S(=O)(=O)N(Cc1ccncc1)C2` | -44.2% |
| 19 | `CN(C)C(=O)C1CCCN1c1ccnc2ccsc12` (stereo unspecified) | 1.343% |
| 20 | `Cc1ccc(C(=O)N2CCC3(CCN3Cc3ccc(F)cc3)C2)cn1.O=C(O)C(F)(F)F` (stereo unspecified) | -7.469% |
| 21 | `C/C=C(\C)CN1C[C@H](NC(=O)CCOC)[C@@H](c2ccc(C)o2)C1` | -48.27% |
| 22 | `COCC(NC(=O)c1ccc[nH]1)c1cccc(C(F)(F)F)c1` (stereo unspecified) | -41.47% |
| 23 | `CC(C)Cc1noc(CN2CCCN(C(=O)c3cccc(Cl)c3)CC2)n1` | 2.272% |
| 24 | `CN(C)CC(=O)N1CCC2(CC1)COc1ccccc1S(=O)(=O)N(C)C2` | -38.54% |
| 25 | `C[S+]([O-])c1nncn1CC(=O)c1ccc2c(c1)CCO2` (stereo unspecified) | 9.57% |
| 26 | `Cc1cc(Cc2ccc(S(=O)(=O)N3CCOCC3)cc2)c(=O)[nH]n1` | -3.423% |
| 27 | `Cc1nn(-c2ccccc2)c(C)c1CN1CCNCC1` | -24.14% |
| 28 | `Cc1cnc(NC(=O)c2cccc(CN(C)Cc3ncccc3C)c2)s1` | -44.74% |
| 29 | `COc1cc2cc(C(=O)NCC(=O)O)n(C)c2c(OC)c1OC` | -46.43% |
| 30 | `CC(=O)Nc1nc(CN2CCCC2Cn2cccn2)cs1` (stereo unspecified) | 98.13% |
| 31 | `O=C(NCCCn1cccn1)C1CCC(=O)N(CC2CCCCC2)C1` (stereo unspecified) | -31.18% |
| 32 | `CC(NCc1ccc(OCC(N)=O)cc1)c1ccc(Cl)c(Cl)c1.Cl` (stereo unspecified) | 16.7% |
| 33 | `CCOc1ccc(Cl)c(C(=O)N2CCCC(c3ccn[nH]3)C2)n1` (stereo unspecified) | -0.6893% |
| 34 | `CN(C(=O)c1ccncc1)c1ccccc1S(C)(=O)=O` | -0.6067% |
| 35 | `COCCC1(C(=O)O)CCCN(C(=O)c2cnc3c(c2)CCCC3)C1` (stereo unspecified) | -52.67% |
| 36 | `CSCCC(NC(=O)c1ccccc1)C(=O)N(C)Cc1ccsc1` (stereo unspecified) | -1.74% |
| 37 | `O=C(O)C(F)(F)F.[H][C@@]12COC[C@]1([H])[C@@H](OCC(=O)N(C)C)CN2Cc1c(C)noc1C` | -13.54% |
| 38 | `Cc1nocc1C(=O)N1CCc2c(CN(C)C)nn(C)c2C1` | -57.1% |
| 39 | `CN(Cc1ccncc1)C1CC2(CCN(c3ncc(F)cn3)CC2)C1.O=C(O)C(F)(F)F.O=C(O)C(F)(F)F` | -12.35% |
| 40 | `CCc1cc(O)n2nc(C3CCN(C(=O)c4cccnc4)CC3)cc2n1` | -10.49% |
| 41 | `O=C(O)C(F)(F)F.c1coc(CN2CCCn3c(nnc3Cn3cccn3)C2)c1` | 2.942% |
| 42 | `O=C(c1cnc(-c2ccccc2)s1)N1CCOC2(CCCC2)C1` | -6.943% |
| 43 | `O=C(O)C(F)(F)F.O=C(c1ccc2ccc(N3CCN(CC4CC4)CC3)n2c1)N1CCCO1` | -65.1% |
| 44 | `CC(CC(=O)c1ccco1)NC(=O)c1ccon1` (stereo unspecified) | -65.84% |
| 45 | `COCCOCc1cccc(NC(=O)N2CCCC2c2ccncc2)c1` (stereo unspecified) | 5.781% |
| 46 | `c1coc(-c2nc(CN3CCn4c(nnc4C4CC4)C3)cs2)c1` | -1.5% |
| 47 | `O=C1CCC2(CCCN(C(=O)c3ccco3)CC2)N1` (stereo unspecified) | -9.854% |
| 48 | `CSc1ccc(-c2nc(CN3CCC(NC(C)=O)CC3)c(C)o2)cc1` | 23.08% |
| 49 | `CCCC1COCCN1Cc1ccc(S(=O)(=O)NC)cc1` (stereo unspecified) | -45.05% |
| 50 | `[H][C@@]12CCN(Cc3ccoc3)C[C@@]1([H])O[C@H](C(=O)NC)C2` | -56.11% |

Repeated from the top, 3 entries:

{"compound": "COCC(=O)NCCc1nc2cc(-c3ccc(OC)cc3)ncn2n1", "Percent Effect": -8.191}
{"compound": "O=C(Cn1cccc2oc(=O)nc1-2)NCC1Cc2ccccc2O1", "stereo": "stereo unspecified", "Percent Effect": -16.21}
{"compound": "CC(C)c1noc(C(C)N2CCN(Cc3nnc(C4CC4)o3)CC2)n1", "stereo": "stereo unspecified", "Percent Effect": 0.4598}

From ChEMBL document CHEMBL3988442, “University of Dundee, Small-Polar-MMV Screening Library” (2021).